Measured values as given in paper PMC5805723.

Molecular target: GABPB (human (endogenous in K1))
Assay: co-IP; endogenous proteins in K1 cell lysate (RIPA buffer with protease and phosphatase inhibitors); 0.5-1.0 ug of the indicated antibody for 1 h at 4 °C, Protein A/G Plus-Agarose overnight at 4 °C, four washes with lysis buffer, western blot

binding: binds
B1: GABPA (protein, UniProt Q06546 1-454)
chain: MTKREAEELIEIEIDGTEKAECTEESIVEQTYAPAECVSQAIDINEPIGNLKKLLEPRLQCSLDAHEICLQDIQLDPERSLFDQGVKTDGTVQLSVQVISYQGIEPKLNILEIVKPADTVEVVIDPDAHHAESEAHLVEEAQVITLDGTKHITTISDETSEQVTRWAAALEGYRKEQERLGIPYDPIQWSTDQVLHWVVWVMKEFSMTDIDLTTLNISGRELCSLNQEDFFQRVPRGEILWSHLELLRKYVLASQEQQMNEIVTIDQPVQIIPASVQSATPTTIKVINSSAKAAKVQRAPRISGEDRSSPGNRTGNNGQIQLWQFLLELLTDKDARDCISWVGDEGEFKLNQPELVAQKWGQRKNKPTMNYEKLSRALRYYYDGDMICKVQGKRFVYKFVCDLKTLIGYSAAELNRLVTECEQKKLAKMQLHGIAQPVTAVALATASLQTEKDN

No constants are given. Whether binding was seen depends on the method and setting. Binding seen in cells or lysates may run through a third protein. A result given as binding can be weak or reduced; the word gives no strength.
